The text below walks through data of publication PMC5438731.

Chains of the proteins cited; added tags and fusions are not shown.
UniProt P10415: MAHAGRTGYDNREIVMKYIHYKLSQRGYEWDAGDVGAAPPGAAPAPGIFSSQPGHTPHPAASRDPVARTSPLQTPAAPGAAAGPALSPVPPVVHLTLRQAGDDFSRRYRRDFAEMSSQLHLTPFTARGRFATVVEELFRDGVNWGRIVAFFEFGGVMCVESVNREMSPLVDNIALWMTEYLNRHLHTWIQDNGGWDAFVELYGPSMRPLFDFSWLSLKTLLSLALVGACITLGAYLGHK

Results are given in words; binding and its absence hold for the method and conditions named. Binding seen in cells or lysates may run through a third protein. Some binding calls cover weakened binding; strength is not graded here.

This experiment deals with Beclin1 (human (endogenous in MCF-7)) (UniProt Q14457). Put plainly: co-IP; endogenous proteins; MCF-7 and MCF-7^TR5 cells lysed in ice-cold RIPA buffer; primary antibody covalently immobilised on protein A/G agarose, 1 h to 3 h at 4°C, washed with TBS five times, Western blotting; for Nur77-Ku80 also MCF-7^TR5 cells with or without Z-LIG (50 μM) for 24 h. (In general: A western blot detects proteins with antibodies after separation by electrophoresis.)

Consider Bcl-2 (from UniProt P10415 1-239), for which the binding result is reported as “binds”.
